Assay results: the supplement of paper PMC3334620
Over roughly 33,000 sequences, “E-score (-0.5 to 0.5)” has its median near -8e-05; the highest 2% begin near 0.23. The list shows a part of the results.

Molecular target: T1, Nrg2 (UniProt P38082)
T1 sequence: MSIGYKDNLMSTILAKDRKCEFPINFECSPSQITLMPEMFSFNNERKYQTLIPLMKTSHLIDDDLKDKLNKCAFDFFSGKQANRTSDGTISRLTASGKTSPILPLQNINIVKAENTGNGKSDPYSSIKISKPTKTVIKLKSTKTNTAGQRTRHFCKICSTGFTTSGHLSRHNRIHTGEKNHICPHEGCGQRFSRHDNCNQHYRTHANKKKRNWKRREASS
Assay: PBM E-score (8-mer binding enrichment) (E-score (-0.5 to 0.5)); higher = stronger / more preferred TF binding
Details: protein concentration: 100 nM; construct: GST-full length
Experimental: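 Universal 'all 10-mer' protein binding microarrays (Agilent AMADID 015681) probed with GST-tagged S. cerevisiae TFs (full-length or DBD) made by in vitro transcription/translation (PURExpress), about 100-200 nM. Bound TF was detected with fluorescent anti-GST. Each ungapped 8-mer (which stands for itself and its reverse complement) is scored by the PBM enrichment score (E-score), a modified Wilcoxon-Mann-Whitney statistic from -0.5 to +0.5, computed with the Universal PBM Analysis Suite. Scale: above 0.35 generally sequence-specific binding.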

| Sequence | PBM E-score |
| --- | --- |
| ACGTAGCG | -0.117 |
| CTTCAGCC | -0.229 |
| ACGACAAA | 0.128 |
| AGCAGGCA | -0.211 |
| TACCACAA | 0.0795 |
| TCCTAACA | 0.0435 |
| AGTCGATC | -0.0397 |
| ACGGAGAC | 0.0901 |
| GCTAGCGA | 0.0379 |
| ACAAAGCG | 0.0461 |
| GATTAACA | 0.171 |
| ATGCTAGA | -0.108 |
| ACCGAACC | -0.254 |
| GGCGTATA | -0.174 |
| AAGTTATA | 0.0407 |
| ACAGCCGT | -0.101 |
| CGTAGGAA | -0.0744 |
| CCATTGGC | -0.0477 |
| AGTTTCGA | 0.0135 |
| ATTAGCAG | 0.179 |
| ATTACTAC | -0.219 |
| TCGCGCCA | 0.0872 |
| AGACCTGG | -0.0485 |
| TCATTAGA | 0.0888 |
| ATGGATGG | -0.113 |

| Sequence | PBM E-score |
| --- | --- |
| CGGCTCGA | 0.101 |
| ATTACCGG | -0.18 |
| CATCCTGG | 0.0732 |
| TCTAGTAA | 0.0759 |
| ACTCGGGC | -0.00664 |
| GTTGTCGA | 0.0581 |
| GATGCACA | 0.104 |
| ATTTCCCC | 0.153 |
| AGCACATA | 0.0815 |
| ATGATGTA | 0.174 |
| ATGCTTTC | 0.037 |
| GAACTTGA | 0.0309 |
| ACGGACCG | -0.252 |
| AAAAGAAG | 0.0497 |
| GGTATTTA | 0.0832 |
| CTATAGAA | -0.0392 |
| GATGATCC | 0.056 |
| AGGTGGTG | -0.0695 |
| CCGGAGAG | -0.0831 |
| CTAACCGC | -0.188 |
| ATCGTAGA | -0.0603 |
| TTATCGAA | 0.0758 |
| CTAACTCC | -0.074 |
| CTTACGTA | -0.165 |
| AACGAGAA | 0.0216 |

| Sequence | PBM E-score |
| --- | --- |
| AACGAAAA | 0.178 |
| TAGTCGGA | 0.0335 |
| ACCCGAGT | 0.0162 |
| ACTAACCG | -0.0844 |
| ATAAGAAA | 0.101 |
| AACTTTCC | 0.00616 |
| TACCTACA | 0.156 |
| AGTCTTGA | -0.0377 |
| ACTGGGGA | -0.122 |
| ATACGCAA | 0.232 |
| AACTGGAC | 0.0787 |
| CGATTCAC | -0.0274 |
| AAGAAGCG | -0.132 |
| AATTATCA | 0.145 |
| AGGACACG | -0.119 |
| AATAAGCA | 0.0921 |
| AGGGTCGC | 0.243 |
| GAACGAGC | 0.156 |
| ACGCCAAG | -0.127 |
| CCGGGCTC | -0.178 |
| GCGGGAAC | 0.0153 |
| CCCACCAC | 0.117 |
| GATGGTGA | -0.0969 |
| GACTGCGA | -0.0315 |
| AACCTCCA | -0.367 |

Rewritten as comma-separated lines: part of the list above
Sequence,PBM E-score
CGGCTCGA,0.101
ATTACCGG,-0.18
CATCCTGG,0.0732
TCTAGTAA,0.0759
ACTCGGGC,-0.00664
GTTGTCGA,0.0581
GATGCACA,0.104
ATTTCCCC,0.153
AGCACATA,0.0815
ATGATGTA,0.174
ATGCTTTC,0.037
GAACTTGA,0.0309
ACGGACCG,-0.252
AAAAGAAG,0.0497
GGTATTTA,0.0832
CTATAGAA,-0.0392
GATGATCC,0.056
AGGTGGTG,-0.0695
CCGGAGAG,-0.0831
CTAACCGC,-0.188
ATCGTAGA,-0.0603
TTATCGAA,0.0758
CTAACTCC,-0.074
CTTACGTA,-0.165
AACGAGAA,0.0216
AACGAAAA,0.178
TAGTCGGA,0.0335
ACCCGAGT,0.0162
ACTAACCG,-0.0844
ATAAGAAA,0.101
AACTTTCC,0.00616
TACCTACA,0.156
AGTCTTGA,-0.0377
ACTGGGGA,-0.122
ATACGCAA,0.232
AACTGGAC,0.0787
CGATTCAC,-0.0274
AAGAAGCG,-0.132
AATTATCA,0.145

The list continues:

| Sequence | PBM E-score |
| --- | --- |
| CGCTGGAG | -0.0111 |
| CACGAACG | -0.00575 |
| CTAACGTC | -0.00975 |
| GAGGACTA | -0.125 |
| GAGTGACA | 0.134 |
| ACCGCCTG | -0.205 |
| ATCTACCA | 0.167 |
| ATGCCTAA | -0.196 |
| AGGTGCGA | -0.131 |
| GCTGCTGA | 0.0122 |
| AGAAAGAA | -0.0402 |
| CTGGAAGA | 0.0145 |
| ATTTTTCC | -0.0723 |
| AACTGCGA | 2e-05 |
| AACCCCAG | 0.237 |
| AACCCCCG | -0.392 |
| TCATTCGA | 0.144 |
| TAGATAGA | 0.0651 |
| AAACCGGG | 0.0532 |
| ATTGCAAC | 0.1 |
| CCAACGCC | -0.11 |
| CAAGCTGG | -0.0819 |
| CTAGTTCA | 0.105 |
| AGATCGGC | -0.00341 |
| AGGGATAG | 0.0482 |

| Sequence | PBM E-score |
| --- | --- |
| CTTTTTGC | 0.155 |
| AGATGTAG | -0.0495 |
| TACTGATA | 0.131 |
| AGTCACAC | -0.0305 |
| GCGCGTAA | 0.127 |
| ATTTAGAC | -0.0405 |
| AAAGAACC | 0.0591 |
| AAAGGCCT | -0.275 |
| GCAGCGTA | -0.128 |
| AACTTTCA | 0.0124 |
| CTGACCGA | -0.05 |
| GCTCTCCA | -0.0723 |
| ATGAACTA | 0.135 |
| AGGTGCTA | -0.152 |
| GATGGTGC | -0.383 |
| ATGTCTAG | 0.0513 |
| CCTCGGTA | -0.284 |
| CCCAGCCA | -0.0397 |
| ATACGTGA | -0.0717 |
| CGCGTTAG | 0.0788 |
| ACCTATGC | -0.124 |
| ACGTCTTC | -0.0978 |
| ACGCAAAC | 0.0287 |
| ACCCCAGC | 0.0626 |
| CCCGACAG | -0.165 |

| Sequence | PBM E-score |
| --- | --- |
| ATTACGAA | -0.0193 |
| CCCATCAG | -0.216 |
| TATTTTAA | 0.0391 |
| CGGCATAG | -0.0721 |
| CCCGTTAG | -0.208 |
| AGGCCGGC | -0.0215 |
| ATATGAAT | 0.134 |
| TCTCAAGA | 0.0717 |
| AATAGAGC | 0.13 |
| GGCCCGGA | -0.31 |
| AAGAGTAC | 0.142 |
| CCGCGCCC | -0.0342 |
| GTCTTGGA | -0.01 |
| CGTATGGC | 0.084 |
| GCTCCCGA | -0.231 |
| CGAGGTCA | 0.0254 |
| CAAAATCA | 0.0593 |
| ATAGTACA | 0.108 |
| CGGTGTAG | 0.0602 |
| ACTTGCGC | 0.0684 |
| CCATTCTC | -0.0701 |
| AGCTGCGC | 0.108 |
| AGGGAAGG | -0.231 |
| TAAATCTA | 0.0846 |
| ACCACTTC | -0.0929 |

3 entries from above, as comma-separated lines.
Sequence,PBM E-score
CGGTGTAG,0.0602
ACTTGCGC,0.0684
CCATTCTC,-0.0701

The results go on.

| Sequence | PBM E-score |
| --- | --- |
| AAGCATCA | 0.0199 |
| AACGCAAT | 0.0611 |
| CTGGATTA | 0.0913 |
| TCGCTGCA | 0.125 |
| TTACACAA | 0.0808 |
| CTGTAGAC | -0.135 |
| CGCGCGCG | 0.302 |
| ATACTCGA | 0.0646 |
| GAGCGCGA | 0.196 |
| CACGGAAG | -0.196 |
| GCTGCTCC | -0.136 |
| AACGTAGC | -0.085 |
| ATGACTTA | 0.0332 |
| CGCTGTAC | 0.041 |
| TCCGCTAA | 0.0636 |
| ACCCTTCT | -0.104 |
| CGCCGTCA | 0.0626 |
| ACATGGGC | 0.128 |
| GCTGGGCA | 0.0393 |
| TAGGCAGA | -0.0271 |
| AGCGTGAA | -0.118 |
| AGGTCCTC | -0.117 |
